# These are yes or no findings as the source states them, for the method shown. Binding calls can cover weak binding; strength is not graded here.
# Chains of the proteins cited; added tags and fusions are not shown. Lines headed by an entry give the natural chain unless they say otherwise; changes in a name come on top.
# UniProt P21796: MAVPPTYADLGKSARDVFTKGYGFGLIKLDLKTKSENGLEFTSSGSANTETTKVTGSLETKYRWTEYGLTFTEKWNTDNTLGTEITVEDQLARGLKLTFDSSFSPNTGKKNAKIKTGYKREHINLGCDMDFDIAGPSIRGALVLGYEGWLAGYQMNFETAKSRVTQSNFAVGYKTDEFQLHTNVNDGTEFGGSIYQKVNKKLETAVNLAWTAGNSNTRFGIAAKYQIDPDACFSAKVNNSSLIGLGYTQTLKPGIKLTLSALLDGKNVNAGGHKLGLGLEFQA
# UniProt Q07820: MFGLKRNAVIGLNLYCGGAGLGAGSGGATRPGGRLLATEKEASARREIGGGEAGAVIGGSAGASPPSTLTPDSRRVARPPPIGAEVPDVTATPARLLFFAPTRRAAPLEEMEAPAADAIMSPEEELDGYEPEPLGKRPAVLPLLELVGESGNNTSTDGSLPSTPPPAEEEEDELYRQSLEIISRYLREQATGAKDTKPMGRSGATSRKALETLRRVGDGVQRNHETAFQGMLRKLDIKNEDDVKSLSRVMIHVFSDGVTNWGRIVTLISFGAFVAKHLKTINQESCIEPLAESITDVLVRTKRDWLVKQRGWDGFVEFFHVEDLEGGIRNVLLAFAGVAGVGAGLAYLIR
# Tests used:
# GST-VDAC1 fusion protein = GST-VDAC1 fusion protein (UniProt P21796); experiment: pull-down; GST-VDAC1 on Glutathione Sepharose 4B incubated with 0.2 ug recombinant purified Mcl-1 or Bcl-xL; western blot, band density of pulldown compared with input; both purified
# [1] = molecular target: Recombinant His-tagged Mcl-1 (UniProt Q07820); experiment: pull-down; His-tagged Mcl-1 (2 ug) bound to ProBond nickel-chelating resin, incubated with GST-VDAC1, 2 or 3 fusion proteins; anti-GST western blot; BSA lanes as beads-alone control; both purified
Substance,binding (GST-VDAC1 fusion protein),binding [1]
Recombinant purified Bcl-xL (from UniProt Q07817-1),binds,
Recombinant His-tagged Mcl-1 (from UniProt Q07820),binds,
GST-VDAC1 fusion protein (from UniProt P21796 1-283),,binds
